Assay results taken from paper PMC7982829.
No constants are given. Whether binding was seen depends on the method and setting. Binding seen in cells or lysates may run through a third protein. These calls come from enrichment with a bait or labelling near it, and not all partners need be listed. Sequences can lack the tags named with a protein.

By UniProt entry, the sequences of proteins in these tests, tags left out.
UniProt P50990: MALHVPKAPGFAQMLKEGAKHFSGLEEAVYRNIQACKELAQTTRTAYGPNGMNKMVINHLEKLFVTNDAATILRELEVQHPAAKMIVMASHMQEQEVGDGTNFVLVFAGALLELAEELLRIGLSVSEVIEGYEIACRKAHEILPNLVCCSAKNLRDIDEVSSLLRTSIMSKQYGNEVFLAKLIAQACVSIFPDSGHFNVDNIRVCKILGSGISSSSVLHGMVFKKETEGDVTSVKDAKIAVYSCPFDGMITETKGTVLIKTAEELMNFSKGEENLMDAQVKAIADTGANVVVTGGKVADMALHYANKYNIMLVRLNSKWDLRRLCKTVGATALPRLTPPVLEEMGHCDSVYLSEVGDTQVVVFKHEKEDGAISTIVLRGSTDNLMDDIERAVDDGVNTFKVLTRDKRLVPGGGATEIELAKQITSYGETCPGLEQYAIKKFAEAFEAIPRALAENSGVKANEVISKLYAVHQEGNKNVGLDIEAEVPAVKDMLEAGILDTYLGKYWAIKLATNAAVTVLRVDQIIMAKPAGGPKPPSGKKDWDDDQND

Target: T1, Flag-TULP2 (tubby-like protein 2 with Flag label) (UniProt P46686)
T1 sequence: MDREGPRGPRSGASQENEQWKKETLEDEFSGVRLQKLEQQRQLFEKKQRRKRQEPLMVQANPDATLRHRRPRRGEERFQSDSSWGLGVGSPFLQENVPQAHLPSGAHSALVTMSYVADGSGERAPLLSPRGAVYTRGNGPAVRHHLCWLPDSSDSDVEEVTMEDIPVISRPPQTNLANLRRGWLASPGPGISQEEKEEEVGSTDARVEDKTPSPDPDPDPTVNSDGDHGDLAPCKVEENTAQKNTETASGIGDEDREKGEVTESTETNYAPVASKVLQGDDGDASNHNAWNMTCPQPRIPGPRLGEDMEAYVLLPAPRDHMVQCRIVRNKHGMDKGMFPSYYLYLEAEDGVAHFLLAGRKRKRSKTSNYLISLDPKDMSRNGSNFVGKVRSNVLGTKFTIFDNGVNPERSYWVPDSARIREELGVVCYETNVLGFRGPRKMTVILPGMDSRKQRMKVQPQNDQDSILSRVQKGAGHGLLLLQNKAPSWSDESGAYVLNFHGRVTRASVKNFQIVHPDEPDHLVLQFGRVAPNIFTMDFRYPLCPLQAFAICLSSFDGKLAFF
Test: affinity purification with mass spectrometry; HEK293T cells transfected with the Flag-TULP2 overexpression plasmid (empty vector plasmid as control), collected 48 h after transfection for immunoprecipitation; immunoprecipitates analysed by mass spectrometry, MaxQuant search against the UniProt human proteome

CCT8 (T-complex protein 1 subunit theta), endogenous in HEK293T (from UniProt P50990 1-548)
binding: binds
